Assay: Odor character of Table 1 PRMs
Settings: neat PRM; last column of Table 1, which has no head

Row | Compound | odor character (descriptor)
1 | CCCC12CCC(C)(OC1)C(C)C2 (racemic) [PRM 6, 1,6-dimethyl-4-(R,S)-propyl-2-oxa-bicyclo[2.2.2]octane] | fruity, green, fresh
2 | C=CCC12CCC(C)(OC1)C(C)C2 (racemic) [PRM 7, 4-(R,S)-allyl-1,6-dimethyl-2-oxa-bicyclo[2.2.2]octane] | green (cactus flowers)
3 | CC(C)C[C@@H]1O[C@]2(C)CCC1(C)CC2C (stereo partly drawn) [PRM 1, (R,S)-3-isobutyl-1,4,6-trimethyl-2-oxabicyclo[2.2.2]octane] | petrol, styrene
4 | CCCCC1OC2(C)CCC1(CC)CC2C [PRM 2, (R,S)-3-butyl-4-ethyl-1,6-dime-thyl-2-oxabicyclo[2.2.2]octane] | floral
5 | CC1CC2(C)CC[C@@]1(C)O[C@H]2C (stereo partly drawn) [PRM 3, (R,S)-1,3,4,6-tetramethyl-2-oxabicyclo[2.2.2]octane] | menthol
6 | CCC12CC[C@@](C)(O[C@H]1C)C(C)C2 (stereo partly drawn) [PRM 4, (R,S)-4-ethyl-1,3,6-trimethyl-2-oxa-bicyclo[2.2.2]octane] | woody, eucalyptus, amber
7 | CC(C)[C@@]12CC[C@@](C)(OC1)C(C)C2 (stereo partly drawn) [PRM 5, (R,S)-4-isopropyl-1,6-dimethyl-2-oxa-bicyclo[2.2.2]octane] | herbal, aromatic, chamomile, violet
8 | CC1C[C@]2(C)CC[C@@]1(C)OC2 (stereo partly drawn) [PRM 8, (R,S)-1,4,6-trimethyl-2-oxa-bicyclo[2.2.2]octane] | camphor, eucalyptol
9 | CC1C[C@]2(C)CC[C@@]1(C)OC2(C)C (stereo partly drawn) [PRM 9, (R,S)-1,3,3,4,6-pentamethyl-2-oxa-bicyclo[2.2.2]octane] | woody, camphoraceous
10 | CC[C@@]12CC[C@@](C)(OC1)C(C)C2 (stereo partly drawn) [PRM 10, (R,S)-4-ethyl-1,6-dimethyl-2-oxa-bicyclo[2.2.2]octane] | Herbal, aromatic, earthy
11 | CCCC12CCC(C)(OC1C)C(C)C2 (stereo not shown) [PRM 11, 1,3,6-trimethyl-4-propyl-2-oxabicyclo[2.2.2]octane] | Fresh, fruity (apple, pear), herbal, floral (rose)
12 | CCCCC12CCC(C)(OC1C)C(C)C2 (stereo not shown) [PRM 12, 4-butyl-1,3,6-trimethyl-2-oxabicyclo[2.2.2]octane] | Floral, fruity, butyric
13 | CCCCC1OC2(C)CCC1(C)CC2C (stereo not shown) [PRM 13, 3-butyl-1,4,6-trimethyl-2-oxabicyclo[2.2.2]octane] | solventy
